The supplement of paper PMC10849652
Some of the results follow.

Experiments:
Assay in all cases: log2 fold change, soluble protein after heating vs DMSO (PISA); higher = thermal stabilisation; K562 cells, 10 uM, 30 min; active = over 0.2 and 3.5 SD of the protein, either way, in both replicates (recomputed)
[1] = compound: C1=CC=C(C=C1)[C@H](COC2=CC3=C(C=C2)NC(=O)N3)NC(=O)C4=CC=CN(C4=O)CC5=CC(=C(C=C5)F)F
How it was run: (§1)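 Soluble protein was quantified by TMTpro 16plex LC-MS/MS after channel sums were equalised. It was obtained as the supernatant after 21,000xg for 90 min from pooled aliquots of K562 cells (2×10^6 cells/mL, 10 μM compound, 30 min) heated for 3 min across 48°C-58°C and extracted in PBS with 0.5% NP-40 at 4°C. Thermal stability values are relative to control samples and come from duplicates. They are given as log2 fold changes.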

[2] = compound: CC1=C(SC2=C1C(=N[C@H](C3=NN=C(N32)C)CC(=O)N)C4=CC=C(C=C4)Cl)C
How it was run: as §1

[3] = compound: CC1=C2C(=CC=C1)N=C(N(C2=O)C3=CC=CC=C3C)CN4C=NC5=C(N=CN=C54)N
How it was run: as §1

[4] = compound: Cc1sc2c(c1C)C(c1ccc(Cl)cc1)=N[C@@H](CC(=O)OC(C)(C)C)c1nnc(C)n1-2
How it was run: as §1

[5] = compound: c1ccc([C@@H]2C[C@H]2NC2CCNCC2)cc1
How it was run: as §1

Measured: log2 fold change

PPP1R14B (UniProt Q96C90)
inactive: [1] -0.212 | [2] 0.086 | [3] -0.051 | [4] -0.111 | [5] -0.34

PPP2R5C isoform 2 (UniProt Q13362)
inactive: [1] -0.065

PRMT7 (UniProt Q9NVM4)
inactive: [1] -0.051 | [2] 0.015 | [3] 0.056 | [4] 0.009 | [5] -0.027

2 entries drawn at random from those above, as already listed:
PPP1R14B (UniProt Q96C90)
inactive: [1] -0.212 | [2] 0.086 | [3] -0.051 | [4] -0.111 | [5] -0.34

PPP2R5C isoform 2 (UniProt Q13362)
inactive: [1] -0.065

Additional entries:

PPP1R12B isoform 6 (UniProt O60237)
inactive: [1] -0.051

PPP2R5E (UniProt Q16537)
inactive: [1] -0.045 | [2] 0.1 | [3] 0.105 | [4] -0.118 | [5] 0.05

PRR4 (UniProt Q16378)
inactive: [1] -0.006

PRKAR2B (UniProt P31323)
inactive: [1] -0.065 | [2] -0.012 | [3] -0.06 | [4] -0.024 | [5] 0.007

PRMT3 (UniProt O60678)
inactive: [1] -0.1 | [2] 0.077 | [3] 0.024 | [4] -0.013 | [5] 0.001

PRF1 (UniProt P14222)
inactive: [1] -0.058

PRG4 (UniProt Q92954)
inactive: [1] 0.007 | [2] -0.044 | [3] -0.15 | [4] -0.309 | [5] -0.033

PRNP (UniProt P04156)
inactive: [1] 0.043

PRMT6 (UniProt Q96LA8)
inactive: [1] -0.011 | [2] 0.035 | [3] 0.077 | [4] -0.244 | [5] -0.159
